In the experiment the target is human GHRHR splice variant 1 (SV1), cryo-EM construct SV1-15AA-LgBiT (human). Briefly: cryo-EM structure; GHRH–SV1–Gs–Nb35 complex; SV1-15AA-LgBiT, Gαs, Gβ1-15AA-peptide 86 and Gγ2 co-expressed in Sf9; complex formed in the cell lysate with 10 μg/mL Nb35, apyrase and 20 μM GHRH, solubilised in LMNG/CHS, purified on amylose resin, TEV cleavage and Superdex 200; NanoBiT tether between SV1 and Gβ1; global resolution 3.3 Å; both purified.

These are yes or no findings as the source states them, for the method shown. Binding can be weak; no strength is given.

YADAIFTNSYRKVLGQLSARKLLQDIMSRQQGESNQERGARARL (peptide, UniProt P01286 32-75) [growth hormone-releasing hormone (GHRH)]: the binding entry was “binds”.
